Reference: patent publication EP4786467A1, “QUINOLINONE COMPOUND, PREPARATION METHOD THEREFOR AND USE THEREOF” (Vigonvita Life Sciences Co., Ltd., priority 2023, dated 2025)
At least one structure is not confirmed: it was looked up by name or label, or the drawing left a doubt.

Test system: Male C57 mice
Experiment: Forced Swim Test
Type: in vivo
Settings: 0.01 mg/kg, intraperitoneally, 0.5h after administration; compared to the solvent control group; Figure 1
Method: Drugs to be tested: The compounds of the present invention and the positive control compound (vortioxetine) were mixed with 5% DMSO, then mixed with 5% Solutol® HS 15, and then 90% physiological saline was added to prepare a solution of appropriate concentration. The solution was prepared immediately before use.
Animal: Male C57 mice, approximately 22g. Animals were randomly divided into a blank control group and each test drug group, with 8 animals in each group. Mice in each group were intraperitoneally injected with either the solvent or the test drug.
Experimental Procedure: Forced swimming test was performed on the mice 0.5h after drug administration. The water level in the forced swimming device was 45cm, and the water temperature was 25°C. The mice were placed in the experimental room for 1h to acclimatize before the experiment. Mice were placed in the device at the start of the experiment for 6 minutes, and the entire process was recorded by a camera. Data analysis only considered the immobility time of the mice during the last 4 minutes.

## O=C1CCc2ccc(CCN3CCN(c4cc(F)cc5c4CCO5)CC3)cc2N1 [Example 2, 7-(2-(4-(6-fluoro-2,3-dihydrobenzofuran-4-yl)piperazin-1-yl)ethyl)-3,4-dihydroquinolin-2(1H)-one]
  immobility time of mice: significantly reduced the immobility time
